# From PubChem BioAssay (EPA / NIEHS)
# By UniProt entry, the sequences of proteins in these tests, tags left out. Where a name states a change or a piece, a line headed by the entry shows the natural chain unless it says otherwise.
# UniProt O70528: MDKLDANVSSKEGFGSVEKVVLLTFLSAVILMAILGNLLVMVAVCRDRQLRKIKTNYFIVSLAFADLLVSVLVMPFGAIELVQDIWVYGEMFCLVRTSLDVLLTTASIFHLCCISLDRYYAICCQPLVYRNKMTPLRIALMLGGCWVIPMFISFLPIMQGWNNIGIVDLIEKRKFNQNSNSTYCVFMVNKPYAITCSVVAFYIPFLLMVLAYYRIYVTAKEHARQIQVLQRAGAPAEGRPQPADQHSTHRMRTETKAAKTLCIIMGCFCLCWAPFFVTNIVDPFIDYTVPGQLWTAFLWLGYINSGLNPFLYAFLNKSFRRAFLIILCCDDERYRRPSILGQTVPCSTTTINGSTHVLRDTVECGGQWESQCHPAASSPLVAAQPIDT
# UniProt P20813: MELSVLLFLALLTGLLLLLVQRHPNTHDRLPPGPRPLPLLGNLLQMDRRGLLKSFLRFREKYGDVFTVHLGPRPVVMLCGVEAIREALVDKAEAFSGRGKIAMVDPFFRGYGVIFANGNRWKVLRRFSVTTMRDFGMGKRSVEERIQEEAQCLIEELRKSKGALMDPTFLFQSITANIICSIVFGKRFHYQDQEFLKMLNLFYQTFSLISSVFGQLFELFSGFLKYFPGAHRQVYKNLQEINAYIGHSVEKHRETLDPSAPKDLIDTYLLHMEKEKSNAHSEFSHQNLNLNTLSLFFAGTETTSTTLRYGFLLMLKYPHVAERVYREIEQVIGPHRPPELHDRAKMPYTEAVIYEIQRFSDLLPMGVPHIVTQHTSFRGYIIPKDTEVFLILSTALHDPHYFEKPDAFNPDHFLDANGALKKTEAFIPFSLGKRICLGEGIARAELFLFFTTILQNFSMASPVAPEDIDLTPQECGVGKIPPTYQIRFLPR
# UniProt P33261, whole entry, looked up: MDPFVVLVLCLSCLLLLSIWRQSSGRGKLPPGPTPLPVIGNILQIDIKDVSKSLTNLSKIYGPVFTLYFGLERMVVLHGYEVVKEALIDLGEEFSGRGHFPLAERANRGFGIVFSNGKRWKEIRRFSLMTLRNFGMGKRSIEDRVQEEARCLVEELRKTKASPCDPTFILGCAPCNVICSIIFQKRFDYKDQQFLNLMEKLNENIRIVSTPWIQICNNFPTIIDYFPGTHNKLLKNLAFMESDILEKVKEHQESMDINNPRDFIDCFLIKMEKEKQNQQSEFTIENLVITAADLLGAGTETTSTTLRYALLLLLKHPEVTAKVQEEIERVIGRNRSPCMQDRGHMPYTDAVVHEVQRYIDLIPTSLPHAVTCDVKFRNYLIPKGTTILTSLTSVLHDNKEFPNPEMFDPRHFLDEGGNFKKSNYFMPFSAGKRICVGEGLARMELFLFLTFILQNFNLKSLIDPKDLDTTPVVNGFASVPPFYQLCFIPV
# UniProt P11712, whole entry, looked up: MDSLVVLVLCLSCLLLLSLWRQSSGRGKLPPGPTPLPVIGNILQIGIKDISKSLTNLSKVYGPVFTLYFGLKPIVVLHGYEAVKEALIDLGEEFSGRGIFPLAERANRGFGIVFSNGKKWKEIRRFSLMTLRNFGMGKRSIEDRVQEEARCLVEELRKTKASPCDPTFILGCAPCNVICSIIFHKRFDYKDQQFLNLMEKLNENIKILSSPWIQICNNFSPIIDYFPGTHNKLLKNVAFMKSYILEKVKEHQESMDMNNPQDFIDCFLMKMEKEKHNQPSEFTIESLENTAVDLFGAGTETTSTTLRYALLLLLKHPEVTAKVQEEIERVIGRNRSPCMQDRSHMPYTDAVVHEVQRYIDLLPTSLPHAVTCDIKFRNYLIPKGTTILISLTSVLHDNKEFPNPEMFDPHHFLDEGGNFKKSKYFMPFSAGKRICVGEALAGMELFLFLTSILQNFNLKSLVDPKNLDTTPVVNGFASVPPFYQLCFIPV
# UniProt P08684, whole entry, looked up: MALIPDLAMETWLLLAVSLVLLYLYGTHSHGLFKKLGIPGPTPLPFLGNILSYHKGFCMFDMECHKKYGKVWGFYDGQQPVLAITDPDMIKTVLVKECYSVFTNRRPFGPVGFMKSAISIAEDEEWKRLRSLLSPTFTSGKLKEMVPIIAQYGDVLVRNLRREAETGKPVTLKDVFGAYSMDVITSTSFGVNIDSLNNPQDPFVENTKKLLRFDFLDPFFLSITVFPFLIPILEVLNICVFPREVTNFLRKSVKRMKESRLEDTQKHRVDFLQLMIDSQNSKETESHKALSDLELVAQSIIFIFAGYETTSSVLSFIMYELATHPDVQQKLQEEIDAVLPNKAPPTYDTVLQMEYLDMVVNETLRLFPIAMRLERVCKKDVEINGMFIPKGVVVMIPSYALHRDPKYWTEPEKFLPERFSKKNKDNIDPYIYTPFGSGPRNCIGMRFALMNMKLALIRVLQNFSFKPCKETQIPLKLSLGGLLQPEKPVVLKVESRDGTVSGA
# UniProt Q9UNQ0: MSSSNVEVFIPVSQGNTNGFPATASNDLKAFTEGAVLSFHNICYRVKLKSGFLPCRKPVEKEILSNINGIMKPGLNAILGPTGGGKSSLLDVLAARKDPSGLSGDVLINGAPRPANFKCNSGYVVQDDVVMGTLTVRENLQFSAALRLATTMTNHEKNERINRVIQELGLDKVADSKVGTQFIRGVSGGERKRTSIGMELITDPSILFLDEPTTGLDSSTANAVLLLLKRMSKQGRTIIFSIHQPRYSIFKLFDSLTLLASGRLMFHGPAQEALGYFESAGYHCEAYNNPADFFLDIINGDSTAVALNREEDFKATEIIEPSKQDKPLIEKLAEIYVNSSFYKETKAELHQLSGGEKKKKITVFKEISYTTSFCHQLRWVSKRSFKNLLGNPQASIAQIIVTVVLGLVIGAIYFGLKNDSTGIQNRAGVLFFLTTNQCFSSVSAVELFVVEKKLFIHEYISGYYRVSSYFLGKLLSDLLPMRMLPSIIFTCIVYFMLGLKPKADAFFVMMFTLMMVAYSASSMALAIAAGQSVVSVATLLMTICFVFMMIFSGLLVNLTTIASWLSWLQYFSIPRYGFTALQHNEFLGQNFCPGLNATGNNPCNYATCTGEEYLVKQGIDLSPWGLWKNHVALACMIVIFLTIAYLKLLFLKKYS
# UniProt P15207: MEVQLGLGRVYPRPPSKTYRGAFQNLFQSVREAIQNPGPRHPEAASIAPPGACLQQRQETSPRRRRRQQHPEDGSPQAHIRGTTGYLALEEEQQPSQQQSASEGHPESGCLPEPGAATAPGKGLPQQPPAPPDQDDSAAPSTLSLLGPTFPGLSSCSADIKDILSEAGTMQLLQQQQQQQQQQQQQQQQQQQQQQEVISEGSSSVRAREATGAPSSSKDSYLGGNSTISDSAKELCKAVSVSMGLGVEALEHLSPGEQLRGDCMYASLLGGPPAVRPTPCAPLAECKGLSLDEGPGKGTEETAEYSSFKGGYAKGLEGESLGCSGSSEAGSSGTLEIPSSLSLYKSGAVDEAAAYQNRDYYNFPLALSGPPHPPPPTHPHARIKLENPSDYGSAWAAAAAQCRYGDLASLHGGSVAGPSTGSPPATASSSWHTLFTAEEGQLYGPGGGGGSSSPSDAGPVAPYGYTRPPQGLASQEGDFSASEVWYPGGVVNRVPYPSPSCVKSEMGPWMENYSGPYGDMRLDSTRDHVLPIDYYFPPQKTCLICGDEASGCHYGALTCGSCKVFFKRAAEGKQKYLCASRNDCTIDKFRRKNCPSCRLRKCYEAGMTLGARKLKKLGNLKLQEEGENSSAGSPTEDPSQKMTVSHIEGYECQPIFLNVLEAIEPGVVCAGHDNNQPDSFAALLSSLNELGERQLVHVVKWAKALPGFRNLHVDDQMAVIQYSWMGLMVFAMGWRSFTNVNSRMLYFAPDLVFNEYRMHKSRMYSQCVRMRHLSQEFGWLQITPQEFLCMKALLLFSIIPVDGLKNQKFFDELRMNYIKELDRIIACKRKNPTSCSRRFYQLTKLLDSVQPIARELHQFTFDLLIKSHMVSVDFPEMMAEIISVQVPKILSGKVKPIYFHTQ
# UniProt P10275: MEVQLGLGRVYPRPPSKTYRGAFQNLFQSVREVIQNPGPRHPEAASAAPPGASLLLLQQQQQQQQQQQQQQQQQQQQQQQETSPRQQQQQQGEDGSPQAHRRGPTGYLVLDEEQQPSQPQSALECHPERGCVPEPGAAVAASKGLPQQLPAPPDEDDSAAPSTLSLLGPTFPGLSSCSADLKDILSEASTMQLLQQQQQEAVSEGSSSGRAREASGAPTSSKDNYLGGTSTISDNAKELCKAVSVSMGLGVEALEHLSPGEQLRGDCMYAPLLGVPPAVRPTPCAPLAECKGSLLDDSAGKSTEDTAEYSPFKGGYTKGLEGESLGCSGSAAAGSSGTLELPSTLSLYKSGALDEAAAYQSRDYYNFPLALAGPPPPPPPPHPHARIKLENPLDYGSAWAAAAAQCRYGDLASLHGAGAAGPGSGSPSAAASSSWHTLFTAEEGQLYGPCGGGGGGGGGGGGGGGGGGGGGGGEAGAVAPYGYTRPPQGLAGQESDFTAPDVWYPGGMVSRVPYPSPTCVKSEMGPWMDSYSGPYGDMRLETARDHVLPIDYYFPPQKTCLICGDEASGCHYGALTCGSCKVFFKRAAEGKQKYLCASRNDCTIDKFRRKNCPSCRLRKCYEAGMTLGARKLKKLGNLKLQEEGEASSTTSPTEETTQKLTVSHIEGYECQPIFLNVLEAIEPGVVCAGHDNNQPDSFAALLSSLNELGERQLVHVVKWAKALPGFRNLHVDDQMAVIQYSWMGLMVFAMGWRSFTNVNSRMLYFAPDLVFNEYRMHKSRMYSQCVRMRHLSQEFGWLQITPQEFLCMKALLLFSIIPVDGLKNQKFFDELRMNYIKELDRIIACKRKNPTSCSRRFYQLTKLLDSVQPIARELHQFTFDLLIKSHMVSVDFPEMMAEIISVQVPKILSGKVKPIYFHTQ
# Values joined by “and” are separate entries in the source; they are usually repeats but may differ in a detail not shown here. Equal values may be shown once. This list was built around the results that the source calls inconclusive (neither active nor inactive); the mix of calls is not that of the screen. For some assays here: Potencies beside an inconclusive call are fits to weak or partial responses and may not hold up. Active and inactive are the calls of the source. The calls were made as follows: active = hit-call score of the fitted dose curve at least 0.9, where 1 is the maximum; inconclusive = response in the unintended direction; inactive = score below 0.9.
# Columns and labels:
# [1] = NVS_GPCR_bNPY_NonSelective: NovaScreen (NVS) G Protein-Coupled Receptor Assay for bovine Neuropeptide Y (NPY) Receptor, Non-selective Binding (AID 2283245)
# Method in brief: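 Bovine hippocampal membranes incubated 1 hour with radioligand and test chemical. Bound ligand measured by filter-based scintillation counting. Single-concentration screen at 25 uM in duplicate, then concentration-response up to 50 uM.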
# [2] = target: guinea pig Serotonin, 5-Hydroxytryptamine Receptor 4 (5HT4), HTR4 (gene 100135548) (UniProt O70528); test: NVS_GPCR_g5HT4: NovaScreen (NVS) G Protein-Coupled Receptor Assay for guinea pig Serotonin, 5-Hydroxytryptamine Receptor 4 (5HT4) (AID 2283294)
# Method in brief: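 Guinea pig striatal membranes; radioligand competitive displacement, filtration and scintillation counting after 1 h. Primary screen in duplicate at 25 uM; actives then tested in concentration series; loss of binding signal fitted relative to DMSO.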
# [3] = test system: guinea pig Dopamine Transporter (DAT), gene 100714898; test: NVS_TR_gDAT: NovaScreen (NVS) Transporter Assay for guinea pig Dopamine Transporter (DAT) (AID 2283369);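 also: active compounds lower bound radioligand signal relative to DMSO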
# Method in brief: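 Guinea pig striatal membranes; radioligand displacement measured by filter-based scintillation counting 2 h after dosing. Initial duplicate screen at 25 uM, then concentration-response up to 50 uM for hits; loss of signal versus DMSO baseline.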
# [4] = read-out: xenobiotic metabolism (CYP2C9), CYP2C9 (gene 1559); test: CLD_CYP2C9_6hr: CellzDirect (CLD) Gene Expression Assay for xenobiotic metabolism (CYP2C9) at 6 hours (AID 2283664)
# Method in brief: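 Primary human hepatocytes dosed daily with test chemicals at multiple concentrations; harvested at 6 h. CYP2C9 mRNA induction measured by qNPA chemiluminescence. Gain of signal fitted against 0.2% DMSO vehicle; cytotoxicity annotated from phase-contrast morphology.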
# [5] = read-out: organic anion transporter (SLCO1B1), SLCO1B1 (gene 10599); test: CLD_SLCO1B1_6hr: CellzDirect (CLD) Gene Expression Assay for organic anion transporter (SLCO1B1) at 6 hours (AID 2283668);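 also: active means mRNA induction above DMSO baseline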
# Method in brief: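 Primary human hepatocytes dosed daily with test chemicals (multiple concentrations) in 0.2% DMSO vehicle; harvested at 6 h. SLCO1B1 mRNA quantified by qNPA chemiluminescence, fitted as gain-of-signal versus DMSO; cytotoxicity from phase-contrast morphology flagged alongside.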
# [6] = CLD_ACTIN_24hr: CellzDirect (CLD) Gene Expression Assay for Baseline Control (Actin) at 24 hours (AID 2283670)
# Method in brief: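 Primary human hepatocytes dosed over multiple concentrations with 0.2% DMSO vehicle; actin mRNA measured at 24 h by qNPA chemiluminescence. Background control endpoint, fitted as gain of signal versus DMSO.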
# [7] = read-out: Cytochrome P450 2B6 (Homo sapiens) (UniProt P20813); test: CLD_CYP2B6_6hr: CellzDirect (CLD) Gene Expression Assay for xenobiotic metabolism (CYP2B6) at 6 hours (AID 2283677);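 also: actives raise CYP2B6 transcript above DMSO baseline so AC50 marks an inducer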
# Method in brief: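 Primary human hepatocytes dosed with chemicals at multiple concentrations, vehicle 0.2% DMSO; CYP2B6 mRNA induction measured 6 h after dosing by quantitative nuclease protection assay with chemiluminescence, gain of signal fitted relative to DMSO.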
# [8] = read-out: Cytochrome P450 2C19 (Homo sapiens) (UniProt P33261); test: CLD_CYP2C19_6hr: CellzDirect (CLD) Gene Expression Assay for xenobiotic metabolism (CYP2C19) at 6 hours (AID 2283678)
# Method in brief: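 Primary human hepatocytes from two donor preparations were dosed daily, with 0.2% DMSO as vehicle, and harvested 6 h after dosing. CYP2C19 mRNA induction was measured by qNPA chemiluminescence and fitted as gain of signal against DMSO.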
# [9] = read-out: Cytochrome P450 2C19 (Homo sapiens) (UniProt P33261); test: CLD_CYP2C19_24hr: CellzDirect (CLD) Gene Expression Assay for xenobiotic metabolism (CYP2C19) at 24 hours (AID 2283687)
# Method in brief: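 Primary human hepatocytes (two donor preparations) dosed daily with fresh test chemical in 0.2% DMSO vehicle; CYP2C19 mRNA induction measured at 24 h by quantitative nuclease protection assay with chemiluminescence, fitted for gain of signal versus DMSO.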
# [10] = read-out: Cytochrome P450 2C9 (Homo sapiens) (UniProt P11712); test: CLD_CYP2C9_24hr: CellzDirect (CLD) Gene Expression Assay for xenobiotic metabolism (CYP2C9) at 24 hours (AID 2283688);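 as to AC50: potency for induction meaning a rise in CYP2C9 mRNA over DMSO vehicle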
# Method in brief: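 Primary human hepatocytes from two donor preparations, dosed daily for two days at multiple concentrations; vehicle 0.2% DMSO. CYP2C9 mRNA induction at 24 h measured by qNPA chemiluminescence relative to DMSO; cytotoxicity annotated from morphology.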
# [11] = read-out: ABC Transporter (ABCB11), ABCB11 (gene 8647); test: CLD_ABCB11_48hr: CellzDirect (CLD) Gene Expression Assay for ABC Transporter (ABCB11) at 48 hours (AID 2283697)
# Method in brief: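 Primary human hepatocytes from two donor preparations dosed daily for two days at multiple concentrations; 0.2% DMSO vehicle. ABCB11 mRNA at 48 h by quantitative nuclease protection assay, chemiluminescence; fitted for induction versus DMSO.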
# [12] = read-out: Cytochrome P450 3A4 (Homo sapiens) (UniProt P08684); test: CLD_CYP3A4_48hr: CellzDirect (CLD) Gene Expression Assay for xenobiotic metabolism (CYP3A4) at 48 hours (AID 2283698)
# Method in brief: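 Primary human hepatocytes from two donor preparations dosed daily for two days with multiple chemical concentrations, 0.2% DMSO vehicle. CYP3A4 mRNA at 48 h by quantitative nuclease protection assay, chemiluminescence, positive fit versus DMSO; cytotoxicity flagged morphologically.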
# [13] = read-out: Broad substrate specificity ATP-binding cassette transporter ABCG2 (Homo sapiens) (UniProt Q9UNQ0); test: CLD_ABCG2_48hr: CellzDirect (CLD) Gene Expression Assay for ABC Transporter (ABCG2) at 48 hours (AID 2283704);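 as to AC50: potency for induction of ABCG2 mRNA above the DMSO baseline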
# Method in brief: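 Primary human hepatocytes from two donors, dosed daily for 2 days, 0.2% DMSO vehicle, several concentrations. ABCG2 mRNA at 48 h by qNPA chemiluminescence, gain fitted versus DMSO; cytotoxicity flagged by morphology.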
# [14] = read-out: xenobiotic metabolism (CYP1A1), CYP1A1 (gene 1543); test: CLD_CYP1A1_48hr: CellzDirect (CLD) Gene Expression Assay for xenobiotic metabolism (CYP1A1) at 48 hours (AID 2283705)
# Method in brief: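 Primary human hepatocytes from two donors dosed daily for two days at multiple concentrations, 0.2% DMSO vehicle; CYP1A1 mRNA induction at 48 h by qNPA chemiluminescence. Cytotoxicity noted by phase-contrast morphology.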
# [15] = read-out: organic anion transporter (SLCO1B1), SLCO1B1 (gene 10599); test: CLD_SLCO1B1_48hr: CellzDirect (CLD) Gene Expression Assay for organic anion transporter (SLCO1B1) at 48 hours (AID 2283707)
# Method in brief: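 Primary human hepatocytes from two donor preparations dosed daily for two days with multiple concentrations, 0.2% DMSO vehicle. SLCO1B1 mRNA at 48 h by quantitative nuclease protection assay, chemiluminescence; gain-of-signal fitted versus DMSO.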
# [16] = target: human SRC Proto-Oncogene, Non-receptor Tyrosine Kinase (SRC), SRC (gene 6714) (UniProt P12931); test: NVS_ENZ_hSRC: NovaScreen (NVS) Enzymatic Assay for human SRC Proto-Oncogene, Non-receptor Tyrosine Kinase (SRC) (AID 2283223)
# Method in brief: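 Cell-free kinase activity assay with fluorescent substrate, product separated by electrophoretic mobility shift, read 1 h after dosing. Duplicate single point at 25 uM, then concentration-response up to 50 uM; loss of signal versus DMSO.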
# [17] = CCTE_Shafer_MEA_dev_active_electrodes_number: CCTE's Neural Network Formation Assay for Number of Active Electrodes, Shafer Lab (AID 2284040);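 also: potency for loss of active electrodes versus DMSO so lower counts are hits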
# Method in brief: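 Rat cortical primary cultures, 1.5 x 10^5 cells/well, PEI-coated MEA, laminin drop. Continuous exposure DIV 0–12; full media/compound change DIV 5, 9. Readout: electrodes with mean firing ≥5 spikes/min; AUC across days; loss vs DMSO.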
# [18] = target: rat Androgen Receptor (AR), Ar (gene 24208) (UniProt P15207); test: NVS_NR_rAR: NovaScreen (NVS) Nuclear Receptor Binding Assay for rat Androgen Receptor (AR) (AID 2283366)
# Method in brief: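 Cell-free radioligand binding on extracts of prostate from testosterone-pretreated rats, read by filter-based scintillation counting 18 h after dosing. Loss of bound signal fitted positively versus DMSO; primary screen in duplicate at 25 uM, actives followed up in concentration series.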
# [19] = target: Agonist Androgen Response Element (ARE), AR (gene 367) (UniProt P10275); test: OT_AR_ARELUC_AG_1440: Odyssey Thera (OT) 24-hour CHO-K1 Luciferase Assay for Agonist Androgen Response Element (ARE) (AID 2283379)
# Method in brief: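 Seed CHO-K1 cells; dose compounds for 24 h; add D-luciferin plus ATP in PBS; read luminescence. Signal increase relative to vehicle defines agonist activity, with at least 3 replicate wells per sample.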
# [20] = test system: zebrafish Androgen Receptor (AR), gene 100005148; test: ATG_zfAR_XSP2: Attagene TRANS-FACTORIAL Multi-Species (XSP2) HepG2 Assay for zebrafish Androgen Receptor (AR) (AID 2283825);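 also: reporter transcript measured by RT-PCR then capillary electrophoresis after 24 h; hits raise reporter mRNA above DMSO so AC50 reflects agonist-type gain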
# Method in brief: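 Zebrafish AR–GAL4 chimera transiently expressed with GAL4-UAS reporter in HepG2 cells, co-stimulated with 3 nM 6-alpha-fluorotestosterone and 1.5 nM norgestrel; 24 h dosing, reporter mRNA read by RT-PCR/capillary electrophoresis versus DMSO.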
smiles,measurement,setting,value
Cc1cc(C)c(O)c(C)c1,AC50,[1],inconclusive: 25000 nM
same,outcome,[2],inactive
CCCCCCC(C)OC(=O)COc1nc(F)c(Cl)c(N)c1Cl (stereo not drawn),AC50,[3],inconclusive: 296 nM
same,AC50,[4],inconclusive: 0.4 nM
same,AC50,[5],inconclusive: 20000 nM
same,outcome,[6],inactive
same,outcome,[7],inactive
same,outcome,[8],inactive
same,AC50,[9],inconclusive: 20000 nM
same,outcome,[10],inactive
same,AC50,[11],inconclusive: 20000 nM
same,AC50,[12],inconclusive: 20000 nM
same,AC50,[13],inconclusive: 0.457 nM
same,AC50,[14],inconclusive: 1710 nM
same,AC50,[15],inconclusive: 0.395 nM
CC(=O)Oc1ccccc1C(=O)O,AC50,[16],inconclusive: 6760 nM
same,AC50,[17],inconclusive: 9.95 µM and inconclusive: 15 µM
CNS(=O)(=O)c1cc(C(=O)N2CCC(CCN3C4CCC3CC(n3c(C)nc5ccccc53)C4)(c3cccc(F)c3)CC2)c(Cl)cc1F (stereo not drawn),AC50,[3],inconclusive: 123 nM
NC(=O)C(F)(F)C(F)(F)C(F)(F)C(F)(F)F,AC50,[17],inconclusive: 15 µM
CC(C)[C@@H]1CC[C@@H](C)C[C@H]1O,AC50,[18],inconclusive: 6.38 nM
same,AC50,[19],inconclusive: 50 µM
O=c1c(-c2ccc(O)cc2)coc2cc(O)cc(O)c12,AC50,[18],inconclusive: 40.3 µM and inconclusive: 50 nM and inconclusive: 25 µM
same,AC50,[19],inconclusive: 50 µM and inconclusive: 89.3 µM
same,AC50,[20],inconclusive: 1000 nM
same,outcome,[20],inactive
CCCOC(=O)NCCCN(C)C,outcome,[4],inactive
same,AC50,[5],inconclusive: 6.02 nM
same,AC50,[6],inconclusive: 20000 nM
same,AC50,[7],inconclusive: 20000 nM
same,outcome,[8],inactive
same,AC50,[9],inconclusive: 0.4 nM
same,AC50,[10],inconclusive: 2.95 nM
same,AC50,[11],inconclusive: 20000 nM
same,AC50,[12],inconclusive: 67.2 nM
same,outcome,[13],inactive
same,outcome,[14],inactive
same,outcome,[15],inactive
CC(=O)O,outcome,[16],inactive

# 3 entries drawn at random from the list so far:
smiles,measurement,setting,value
O=c1c(-c2ccc(O)cc2)coc2cc(O)cc(O)c12,AC50,[20],inconclusive: 1000 nM
same,AC50,[18],inconclusive: 40.3 µM and inconclusive: 50 nM and inconclusive: 25 µM
CC(C)[C@@H]1CC[C@@H](C)C[C@H]1O,AC50,[18],inconclusive: 6.38 nM
